Literature values as cited in patent publication US20250134949A1, “PROMININ-1 PEPTIDE FOR TREATING LUNG INJURY” (Children's Medical Center Corporation, priority 2017, published 2025).
Not every detail of the peptide structures is certain; ends, links or a residue may be inferred. No end group written: not given here.

Test system: VEGFR2, Neuropilin-1, endothelial cells
Conditions: in vitro, reference 36; cited from earlier work

## DRVQRQTTTVVA [PR1P, DRVQRQTTTVVA]
  VEGF binding to VEGF receptors and to endothelial cells: increased VEGF binding to VEGF receptors VEGFR2 and Neuropilin-1, and to endothelial cells
